The numbers were not newly measured in article PMC8750630, “Novel Molecular Targets for Hepatocellular Carcinoma” (Cancers, 2021), which cites them from elsewhere.

The conditions of this series: interrogation of database, Table S6; ref HLA Ligand Atlas; cited from earlier work.
On to LLNQQICPV, for which the “HLA Classes (identification by mass spectrometry in normal tissues)” value (shortened to “HLA Classes”) is recorded as “no match”.

FYFRNHFCI: the “HLA Classes” value is reported as “no match”.

For IYTVSSFSI, the “HLA Classes” value is “no match”.

Take VYSACSFTF: the “HLA Classes” value is reported as “no match”.

With LYACGTGAF, the “HLA Classes” value is recorded as “no match”.

As for ALFGALFLA, the “HLA Classes” value is “HLA-1”.

RQYSVGFEV: the “HLA Classes” value was “no match”.

Turning to ALSNHLNAV, the “HLA Classes” value is “HLA-1”.

On to VYVAFSEFF, for which the “HLA Classes” value is recorded as “no match”.

Consider TLLKVTLEV, for which the “HLA Classes” value is “no match”.

Take FQFSASLHV: the “HLA Classes” value is given as “no match”.

Take LLNSLLDTV: the “HLA Classes” value is given as “no match”.

Take YYDVIYLSW: the “HLA Classes” value is recorded as “no match”.

With ALLALTSAV, the “HLA Classes” value was “no match”.

For TYFGSIVLL, the “HLA Classes” value is “no match”.

In the case of VYTYIQSRF, the “HLA Classes” value is given as “HLA-1”.

On to IFNIIPSTF, for which the “HLA Classes” value is reported as “no match”.

With RIVCLFWGV, the “HLA Classes” value is given as “no match”.

Take KITEYLERV: the “HLA Classes” value is reported as “HLA-1”.

Take LYSGTAADF: the “HLA Classes” value is reported as “no match”.

Turning to YYYQRALEI, the “HLA Classes” value is listed as “no match”.

Turning to MVMSFVNLV, the “HLA Classes” value was “no match”.

Turning to LYHAGTVLL, the “HLA Classes” value is “no match”.

Regarding FMLDLYNAL, the “HLA Classes” value is listed as “no match”.

With MLAGNEFQV, the “HLA Classes” value is “no match”.

Consider FLISIYQVL, for which the “HLA Classes” value is recorded as “no match”.

For VHMKDFFYF, the “HLA Classes” value is reported as “no match”.

With TMLNILALV, the “HLA Classes” value is recorded as “no match”.
